Measured data: PubChem BioAssay AID1259254 (NCATS, 2017)
Purpose: 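Finding genes that stop cells copying their DNA twice in one cycle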 (primary screen). Cells: human HCT116 colorectal cancer cells. Reagent: single siRNA against human genes. Time to read-out: 3 days. Measured: 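Nuclei stained with Hoechst and imaged; cell-cycle phase assigned by DNA content; G2 share scaled per plate, non-targeting siRNA 0%, GMNN siRNA 100%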. Direction: G2 robust z-score and G2 cells, % of GMNN control: higher = more G2 cells, more excess DNA replication. Hit rule: 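Active siRNAs have a G2 robust z of 5 or more median absolute deviations over the median, which in these data means about 38% or higher of GMNN control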.
Shown is an unselected part of about 59,000 reagents. About 1,550 of all reagents (2.6%) count as active. 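G2 share is only a proxy for re-replication; each gene was hit by three separate siRNAs, and active genes were retested.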 Reagents against one gene are numbered here. Not all columns of the deposit are shown. Not stated in the record: the amount of reagent.

TNFAIP2 (TNF alpha induced protein 2) #1 scored G2 robust z-score 2.22; G2 cells, % of GMNN control 18.6; inactive. After knock-down of TNFAIP2 (TNF alpha induced protein 2) #2 the results were G2 robust z-score -0.35; G2 cells, % of GMNN control 0.505; inactive. Depletion of TNFAIP2 (TNF alpha induced protein 2) #3 came out at: G2 robust z-score -0.341; G2 cells, % of GMNN control 0.572; inactive. ESYT1 (extended synaptotagmin 1) #1 showed G2 robust z-score 1.78; G2 cells, % of GMNN control 15.5; inactive. Knock-down of ESYT1 (extended synaptotagmin 1) #2 came out at: G2 robust z-score 2.8; G2 cells, % of GMNN control 22.7; inactive. Silencing of ESYT1 (extended synaptotagmin 1) #3 resulted in: G2 robust z-score 4.08; G2 cells, % of GMNN control 31.7; inactive.

KLHDC10 (kelch domain containing 10) #1 gave G2 robust z-score 1.78; G2 cells, % of GMNN control 15.5; inactive. KLHDC10 (kelch domain containing 10) #2 showed G2 robust z-score 0.314; G2 cells, % of GMNN control 5.18; inactive. Against KLHDC10 (kelch domain containing 10) #3, the entry reads G2 robust z-score 0.689; G2 cells, % of GMNN control 7.82; inactive. Silencing of ZUP1 (zinc finger containing ubiquitin peptidase 1) #1 resulted in: G2 robust z-score -0.371; G2 cells, % of GMNN control 0.357; inactive. For ZUP1 (zinc finger containing ubiquitin peptidase 1) #2, the entry reads G2 robust z-score -0.734; G2 cells, % of GMNN control -2.2; inactive. Knock-down of ZUP1 (zinc finger containing ubiquitin peptidase 1) #3 came out at: G2 robust z-score -0.164; G2 cells, % of GMNN control 1.82; inactive.

Against FAM91A1 (family with sequence similarity 91 member A1) #1, the entry reads G2 robust z-score 0.941; G2 cells, % of GMNN control 9.59; inactive. Against FAM91A1 (family with sequence similarity 91 member A1) #2, the values are G2 robust z-score 1.72; G2 cells, % of GMNN control 15.1; inactive. With knock-down of FAM91A1 (family with sequence similarity 91 member A1) #3, the screen gave G2 robust z-score 0.862; G2 cells, % of GMNN control 9.03; inactive. For RUNX1 (RUNX family transcription factor 1) #1, the entry reads G2 robust z-score 0.772; G2 cells, % of GMNN control 8.4; inactive. Against RUNX1 (RUNX family transcription factor 1) #2, the entry reads G2 robust z-score 1.51; G2 cells, % of GMNN control 13.6; inactive. RUNX1 (RUNX family transcription factor 1) #3 gave G2 robust z-score 0.236; G2 cells, % of GMNN control 4.63; inactive.
